No constants are given. Whether binding was seen depends on the method and setting.
Molecular target: E. coli ssDNA binding protein SSB (E. coli) (UniProt P0AGE0)
Assay: native gel or EMSA

Amino acid sequences for entries named in this document (tags omitted).
UniProt P0AGE0: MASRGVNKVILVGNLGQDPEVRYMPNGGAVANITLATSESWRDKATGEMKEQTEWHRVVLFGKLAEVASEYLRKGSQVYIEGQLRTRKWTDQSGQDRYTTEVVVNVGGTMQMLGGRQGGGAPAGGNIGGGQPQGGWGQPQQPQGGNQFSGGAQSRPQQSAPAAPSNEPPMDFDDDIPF

B1: human HelQ helicase (full-length HelQ) (enzyme)
chain: MDECGSRIRRRVSLPKRNRPSLGCIFGAPTAAELVPGDEGKEEEEMVAENRRRKTAGVLPVEVQPLLLSDSPECLVLGGGDTNPDLLRHMPTDRGVGDQPNDSEVDMFGDYDSFTENSFIAQVDDLEQKYMQLPEHKKHATDFATENLCSESIKNKLSITTIGNLTELQTDKHTENQSGYEGVTIEPGADLLYDVPSSQAIYFENLQNSSNDLGDHSMKERDWKSSSHNTVNEELPHNCIEQPQQNDESSSKVRTSSDMNRRKSIKDHLKNAMTGNAKAQTPIFSRSKQLKDTLLSEEINVAKKTVESSSNDLGPFYSLPSKVRDLYAQFKGIEKLYEWQHTCLTLNSVQERKNLIYSLPTSGGKTLVAEILMLQELLCCRKDVLMILPYVAIVQEKISGLSSFGIELGFFVEEYAGSKGRFPPTKRREKKSLYIATIEKGHSLVNSLIETGRIDSLGLVVVDELHMIGEGSRGATLEMTLAKILYTSKTTQIIGMSATLNNVEDLQKFLQAEYYTSQFRPVELKEYLKINDTIYEVDSKAENGMTFSRLLNYKYSDTLKKMDPDHLVALVTEVIPNYSCLVFCPSKKNCENVAEMICKFLSKEYLKHKEKEKCEVIKNLKNIGNGNLCPVLKRTIPFGVAYHHSGLTSDERKLLEEAYSTGVLCLFTCTSTLAAGVNLPARRVILRAPYVAKEFLKRNQYKQMIGRAGRAGIDTIGESILILQEKDKQQVLELITKPLENCYSHLVQEFTKGIQTLFLSLIGLKIATNLDDIYHFMNGTFFGVQQKVLLKEKSLWEITVESLRYLTEKGLLQKDTIYKSEEEVQYNFHITKLGRASFKGTIDLAYCDILYRDLKKGLEGLVLESLLHLIYLTTPYDLVSQCNPDWMIYFRQFSQLSPAEQNVAAILGVSESFIGKKASGQAIGKKVDKNVVNRLYLSFVLYTLLKETNIWTVSEKFNMPRGYIQNLLTGTASFSSCVLHFCEELEEFWVYRALLVELTKKLTYCVKAELIPLMEVTGVLEGRAKQLYSAGYKSLMHLANANPEVLVRTIDHLSRRQAKQIVSSAKMLLHEKAEALQEEVEELLRLPSDFPGAVASSTDKA
  binding: no binding

— paper doi:10.1101/511758 (bioRxiv, 2019)
